From patent publication US12655113B2, “Biphenyl compounds as SOCE modulators, compositions and uses thereof” (Università degli Studi del Piemonte Orientale “Amedeo …, priority 2020, dated 2026)
At least one read-out could not be matched to a standard name with certainty.

Target: SOCE in myotubes from KI-STIM1I115F mice (STIM1 mutated protein)
Experiment: Pharmacological modulation of SOCE in myotubes from KI-STIM1 I115F mice
Type: cell-based, mouse
Details: 10 μM; FIG. 4
Procedure: Wild-type and KI-STIM1^I115F primary myoblast were obtained from the following muscles: gastrocnemius, tibialis anterior, quadriceps femoris, extensor digitorum longus, soleus, biceps brachii and diaphragm. Each muscle was placed in a 60 mm dish in phosphate-buffered saline (PBS), removed from the tendon and separated longitudinally and subsequently chopped into smaller pieces. The small fragments were incubated with Pronase® (Protease, Streptomyces griseus, Calbiochem®, 25 KU) for 1 hour at 37° C. in shaking and neutralized with Dulbecco's Modified Eagle's Medium (DMEM, Sigma-Aldrich, Italy), supplemented with 10% heat-inactivated FCS (Gibco, Italy), L-glutamine 50 mg/mL (Sigma-Aldrich, Italy), penicillin 10 U/mL and streptomycin […] (Sigma-Aldrich, Italy), and 1% chicken embryo extract (Sigma-Aldrich, Italy). Tissues were then chopped into smaller pieces passing through pipets of 10 and 5 mL and the supernatant obtained was filtered in 40 μm strainer and centrifuge at RT for 10 minutes at 1200 rpm. […]
Myotubes were generated from 4 animals in each condition. We also analysed whether SOCE in WT myotubes was modified during the lifespan of these animals. […]

COc1cccc(-c2ccc(-n3cc(-c4cccc(C(=O)O)c4)nn3)cc2)c1 [Compound 13, 3-(1-(3′-Methoxy-[1,1′-biphenyl]-4-yl)-1H-1,2,3-triazol-4-yl)benzoic acid]
SOCE in myotubes from KI-STIM1I115F mice: impairs SOCE
